# Source: ChEMBL document CHEMBL4316593 (Eur J Med Chem, 2019)
# The source gives many values for each of these; only a part stands here.
# Key:
# Assay type in all cases: cell-based
# Details in all cases: U-87MG ATCC
# [1] = Inhibition of RTK/PI3K/AKT/mTOR signaling in human U87 cells assessed as up regulation of ZFP36 ring finger protein like 2 gene expression at cytotoxic IC50 measured after 48 hrs relative to control
# [2] = Inhibition of RTK/PI3K/AKT/mTOR signaling in human U87 cells assessed as up regulation of UBE2C gene expression at cytotoxic IC50 measured after 48 hrs relative to control
# [3] = Inhibition of RTK/PI3K/AKT/mTOR signaling in human U87 cells assessed as up regulation of ITPKA gene expression at cytotoxic IC50 measured after 48 hrs relative to control
# [4] = Inhibition of RTK/PI3K/AKT/mTOR signaling in human U87 cells assessed as up regulation of zona pellucida glycoprotein 3 gene expression at cytotoxic IC50 measured after 48 hrs relative to control
# [5] = Inhibition of RTK/PI3K/AKT/mTOR signaling in human U87 cells assessed as up regulation of IL11 gene expression at cytotoxic IC50 measured after 48 hrs relative to control
# [6] = Inhibition of RTK/PI3K/AKT/mTOR signaling in human U87 cells assessed as up regulation of tRNA-histidine guanylyltransferase 1 like gene expression at cytotoxic IC50 measured after 48 hrs relative to control
# [7] = Inhibition of RTK/PI3K/AKT/mTOR signaling in human U87 cells assessed as down regulation of ANKFN1 gene expression at cytotoxic IC50 measured after 48 hrs relative to control
# [8] = Inhibition of RTK/PI3K/AKT/mTOR signaling in human U87 cells assessed as down regulation of LAMP1 gene expression at cytotoxic IC50 measured after 48 hrs relative to control
# [9] = Inhibition of RTK/PI3K/AKT/mTOR signaling in human U87 cells assessed as down regulation of SETX gene expression at cytotoxic IC50 measured after 48 hrs relative to control
# [10] = Inhibition of RTK/PI3K/AKT/mTOR signaling in human U87 cells assessed as down regulation of SLF2 gene expression at cytotoxic IC50 measured after 48 hrs relative to control
# [11] = Inhibition of RTK/PI3K/AKT/mTOR signaling in human U87 cells assessed as up regulation of carbohydrate sulfotransferase 15 gene expression at cytotoxic IC50 measured after 48 hrs relative to control
# [12] = Inhibition of RTK/PI3K/AKT/mTOR signaling in human U87 cells assessed as up regulation of ZNF503 antisense RNA 1 gene expression at cytotoxic IC50 measured after 48 hrs relative to control
# [13] = Inhibition of RTK/PI3K/AKT/mTOR signaling in human U87 cells assessed as up regulation of transmembrane protein 38A gene expression at cytotoxic IC50 measured after 48 hrs relative to control
# [14] = Inhibition of RTK/PI3K/AKT/mTOR signaling in human U87 cells assessed as down regulation of CD59 gene expression at cytotoxic IC50 measured after 48 hrs relative to control
# [15] = Inhibition of RTK/PI3K/AKT/mTOR signaling in human U87 cells assessed as up regulation of PVR gene expression at cytotoxic IC50 measured after 48 hrs relative to control
# [16] = Inhibition of RTK/PI3K/AKT/mTOR signaling in human U87 cells assessed as up regulation of mitochondrial ribosome recycling factor gene expression at cytotoxic IC50 measured after 48 hrs relative to control
# [17] = Inhibition of RTK/PI3K/AKT/mTOR signaling in human U87 cells assessed as down regulation of MKI67 gene expression at cytotoxic IC50 measured after 48 hrs relative to control
# [18] = Inhibition of RTK/PI3K/AKT/mTOR signaling in human U87 cells assessed as up regulation of ribosomal RNA processing 1 gene expression at cytotoxic IC50 measured after 48 hrs relative to control
# [19] = Inhibition of RTK/PI3K/AKT/mTOR signaling in human U87 cells assessed as up regulation of major facilitator superfamily domain containing 10 gene expression at cytotoxic IC50 measured after 48 hrs relative to control
# [20] = Inhibition of RTK/PI3K/AKT/mTOR signaling in human U87 cells assessed as down regulation of CRNKL1 gene expression at cytotoxic IC50 measured after 48 hrs relative to control
# [21] = Inhibition of RTK/PI3K/AKT/mTOR signaling in human U87 cells assessed as down regulation of RRM2 gene expression at cytotoxic IC50 measured after 48 hrs relative to control
# [22] = Inhibition of RTK/PI3K/AKT/mTOR signaling in human U87 cells assessed as down regulation of NCAPD3 gene expression at cytotoxic IC50 measured after 48 hrs relative to control
# [23] = Inhibition of RTK/PI3K/AKT/mTOR signaling in human U87 cells assessed as down regulation of GPCPD1 gene expression at cytotoxic IC50 measured after 48 hrs relative to control
# [24] = Inhibition of RTK/PI3K/AKT/mTOR signaling in human U87 cells assessed as up regulation of RHBDD1 gene expression at cytotoxic IC50 measured after 48 hrs relative to control
# [25] = Inhibition of RTK/PI3K/AKT/mTOR signaling in human U87 cells assessed as up regulation of BNIP3 gene expression at cytotoxic IC50 measured after 48 hrs relative to control
# [26] = Inhibition of RTK/PI3K/AKT/mTOR signaling in human U87 cells assessed as up regulation of GRPEL1 gene expression at cytotoxic IC50 measured after 48 hrs relative to control
# [27] = Inhibition of RTK/PI3K/AKT/mTOR signaling in human U87 cells assessed as down regulation of PRPF38A gene expression at cytotoxic IC50 measured after 48 hrs relative to control
# [28] = Inhibition of RTK/PI3K/AKT/mTOR signaling in human U87 cells assessed as up regulation of tripartite motif containing 27 gene expression at cytotoxic IC50 measured after 48 hrs relative to control
# [29] = Inhibition of RTK/PI3K/AKT/mTOR signaling in human U87 cells assessed as up regulation of VPS28 gene expression at cytotoxic IC50 measured after 48 hrs relative to control
# [30] = Inhibition of RTK/PI3K/AKT/mTOR signaling in human U87 cells assessed as up regulation of PDGFA gene expression at cytotoxic IC50 measured after 48 hrs relative to control
# [31] = Inhibition of RTK/PI3K/AKT/mTOR signaling in human U87 cells assessed as up regulation of semaphorin 4C gene expression at cytotoxic IC50 measured after 48 hrs relative to control
# [32] = Inhibition of RTK/PI3K/AKT/mTOR signaling in human U87 cells assessed as down regulation of SNHG12 gene expression at cytotoxic IC50 measured after 48 hrs relative to control
smiles,measurement,setting,value
CC(=O)C(=NNc1ccccc1C#N)C(C)=O,log2FC,[1],0.647
same,log2FC,[2],0.628
same,log2FC,[3],2.43
same,log2FC,[4],1.25
same,log2FC,[5],1.57
same,log2FC,[6],0.933
same,log2FC,[7],-1.45
same,log2FC,[8],-0.707
same,log2FC,[9],-0.455
same,log2FC,[10],-1.08
same,log2FC,[11],0.819
same,log2FC,[12],1.56
same,log2FC,[13],0.911
same,log2FC,[14],-0.872
same,log2FC,[15],0.442
same,log2FC,[16],0.92
same,log2FC,[17],-0.555
same,log2FC,[18],0.773
same,log2FC,[19],0.74
same,log2FC,[20],-0.647
same,log2FC,[21],-1.39
same,log2FC,[22],-1
same,log2FC,[23],-2
same,log2FC,[24],0.606
same,log2FC,[25],2.88
same,log2FC,[26],0.593
same,log2FC,[27],-0.734
same,log2FC,[28],0.729
same,log2FC,[29],0.589
same,log2FC,[30],2.29
same,log2FC,[31],1.1
same,log2FC,[32],-1.58
